# *1 amine or outer side, *2 acyl side, *3 side chain or, on linkers, in order; H or OH if unused. Where a SMILES comes first, the peptide text is derived from it. [ ]: non-standard residue; d: D form. γGlu = O=C(O)[C@H](CCC(=O)[*:2])N[*:1]; Hyp = O=C(O)[CH]1C[CH](O)CN1; Abu = CC[C@H](N)C(=O)O
# Assay: Metabolomics of fetal brain at E14.5
# Type: in vivo, C57Bl/6J mice
# Details: metabolite level in E14.5 fetal brain; for fold of change ABX/SPF: ANOVA contrast ABX/SPF; for fold of change GF/ABX: ANOVA contrast GF/ABX; for fold of change GF/SPF: ANOVA contrast GF/SPF; for fold of change GF/Sp: ANOVA contrast GF/Sp; for fold of change Sp/ABX: ANOVA contrast Sp/ABX; for fold of change Sp/SPF: ANOVA contrast Sp/SPF
SMILES,fold of change ABX/SPF,fold of change GF/ABX,fold of change GF/SPF,fold of change GF/Sp,fold of change Sp/ABX,fold of change Sp/SPF
NCCS(=O)O [compound 363],0.96,1.02,0.98,1.22,0.84,0.80
NCCS(=O)(=O)O [compound 364],0.80,0.97,0.77,0.92,1.05,0.84
CC(=O)NCCS(=O)(=O)O [compound 365],0.74,1.27,0.94,1.01,1.25,0.92
N=C(N)NCCS(=O)(=O)O [compound 367],0.71,0.75,0.54,0.84,0.89,0.64
N[C@@H](CS(=O)(=O)O)C(=O)O [compound 369],0.37,1.08,0.40,0.43,2.49,0.92
N=C(N)NCCC[C@H](N)C(=O)O [compound 371],0.88,1.06,0.93,1.06,1.00,0.88
N=C(NCCC[C@H](N)C(=O)O)N[C@@H](CC(=O)O)C(=O)O [compound 372],0.82,1.05,0.86,1.12,0.93,0.76
NCCC[C@H](N)C(=O)O [compound 375],0.77,1.19,0.92,1.11,1.08,0.84
N=C(N)NCCCC(=O)C(=O)O [compound 379],0.80,0.97,0.78,0.95,1.02,0.82
NC(=O)NCCC[C@H](N)C(=O)O [compound 380],0.78,0.92,0.71,0.88,1.05,0.82
N=C(N)NCCCC[C@H](N)C(=O)O [compound 381],0.86,0.90,0.77,0.85,1.06,0.90
NC(=O)NCCCC[C@H](N)C(=O)O [compound 382],0.84,0.62,0.52,0.55,1.13,0.95
O=C(O)[C@@H]1CCCN1 [compound 383],0.87,1.06,0.93,1.13,0.94,0.82
CC(=O)N[C@@H](CCCNC(=N)N)C(=O)O [compound 387],0.86,0.93,0.80,0.96,0.98,0.84
CC(=O)NCCC[C@H](N)C(=O)O [compound 392],0.75,0.54,0.40,0.40,1.35,1.01
O=C(O)[C@@H]1C[C@@H](O)CN1 [compound 397],0.93,0.97,0.91,1.06,0.92,0.86
O=C(O)C1CC(O)CN1C(=O)C1CCCN1 (stereo not drawn) [compound 399] (H-Pro-[Hyp]-OH; configuration not given here),0.67,1.03,0.69,0.85,1.22,0.81
N=C(N)NCCCC(O)C(=O)O (stereo not drawn) [compound 405],0.70,0.93,0.65,0.96,0.97,0.68

SMILES,fold of change ABX/SPF,fold of change GF/ABX,fold of change GF/SPF,fold of change GF/Sp,fold of change Sp/ABX,fold of change Sp/SPF
N=C(N)NCC(=O)O [compound 410],0.88,1.13,1.00,1.09,1.03,0.91
CN(CC(=O)O)C(=N)N [compound 411],0.82,1.01,0.83,0.94,1.07,0.88
CN1CC(=O)N=C1N [compound 412],0.83,1.12,0.93,1.06,1.06,0.88
NCCCCN [compound 418],0.99,0.94,0.93,1.01,0.93,0.91
NCCCCNCCCN [compound 421],0.77,0.94,0.73,1.02,0.93,0.71
NCCCNCCCCNCCCN [compound 426],0.74,0.95,0.70,1.03,0.92,0.68
CSC[C@H]1O[C@@H](n2cnc3c(N)ncnc32)[C@H](O)[C@@H]1O [compound 429],0.79,1.06,0.84,0.92,1.16,0.92
CC(=O)NCCCCN [compound 430],0.94,1.17,1.10,0.95,1.23,1.16
CNC(=N)N [compound 438],0.72,1.00,0.72,1.00,1.00,0.72
N=C(N)NCCCC(=O)O [compound 439],0.83,0.98,0.82,1.13,0.87,0.72
N[C@@H](CCC(=O)N[C@@H](CSSC[C@H](N)C(=O)O)C(=O)NCC(=O)O)C(=O)O [compound 445],0.21,4.83,1.00,0.92,5.28,1.10
CSC[C@H](NC(=O)CC[C@H](N)C(=O)O)C(=O)NCC(=O)O [compound 446],0.82,1.03,0.84,1.10,0.94,0.77
CC(O)C(=O)SC[C@H](NC(=O)CC[C@H](N)C(=O)O)C(=O)NCC(=O)O (stereo partly drawn) [compound 447],1.50,0.31,0.46,0.70,0.44,0.66
O=C1CC[C@@H](C(=O)O)N1 [compound 451],0.65,0.97,0.63,0.86,1.13,0.74
CC[C@H](NC(=O)CC[C@H](N)C(=O)O)C(=O)NCC(=O)O [compound 456] (γGlu-[Abu]-Gly-OH),0.72,1.29,0.92,1.66,0.77,0.56
CC(C)(COP(=O)(O)OP(=O)(O)OC[C@H]1O[C@@H](n2cnc3c(N)ncnc32)[C@H](O)[C@@H]1O)[C@@H](O)C(=O)NCCC(=O)NCCSSC[C@H](NC(=O)CC[C@H](N)C(=O)O)C(=O)NCC(=O)O [compound 460],0.89,0.82,0.72,0.77,1.06,0.94
CC(C)(COP(=O)(O)OP(=O)(O)OC[C@H]1O[C@@H](n2cnc3c(N)ncnc32)[C@H](O)[C@@H]1OP(=O)(O)O)[C@@H](O)C(=O)NCCC(=O)NCCSSC[C@H](NC(=O)CC[C@H](N)C(=O)O)C(=O)NCC(=O)O [compound 461],1.14,0.90,1.02,1.12,0.80,0.91

# — patent US12491217B2, “Compositions and methods for promoting healthy neural development in an unborn baby” (The Regents of the University of California, priority 2019, dated 2025)
